Screen size: about 330,000 compounds; about 7,700 (2.3%) were called active. Inconclusive means that the source gave no clear call. Such entries were picked first, then a sample of the others. Calls follow the shape of the dose curve; as a rule, active = well fitted inhibition curve with a large enough effect; inconclusive = small, poorly fitted or top-dose-only effect, or effect the other way; inactive = flat fitted curve, though single readings scatter. Potencies of inconclusive entries are doubtful fits and often do not repeat.
Assay: qHTS screen for small molecules that inhibit ELG1-dependent DNA repair in human embryonic kidney (HEK293T) cells expressing luciferase-tagged ELG1; also: nearly all actives have a fitted effect of over 55% in size
Details: HEK293T ELG1-luciferase reporter, luminescence, 16 h, DNA damage induced by 5-fluorouridine; activity change, negative = inhibition: at 46.1 µM (top of the series)
Summary of the method: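 5-Fluorouridine DNA damage + compound/DMSO, 2,000 cells/well, 16 h, 37 °C/5% CO2. ONE-Glo, 30 min RT, luminescence. Readout = decrease in reporter signal.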
% is scaled to controls: 0 for no effect and ±100 for the full control effect; potency is read from the fitted curve at half-maximal effect.

Row | Structure (SMILES) | activity change, negative = inhibition | Potency
1 | Fc1ccc(NC2=NCCCCC2)cc1 | inactive: 10.4% | –
2 | O=C(CSc1nc(-c2ccco2)cc(C(F)(F)F)n1)Nc1cccnc1 | – | inconclusive: 13 µM [inhibitor, partial curve, poor fit]
3 | COc1ccc(Cn2c(CCC(=O)N3CCN(c4ccccn4)CC3)nc3ncccc3c2=O)cc1 | – | inconclusive: 29.1 µM [inhibitor, single point]
4 | CN(C)N1C(N)=C(C#N)C(c2cccc3ccccc23)C2=C1CC(c1ccccc1)CC2=O (stereo not drawn) | – | active: 16.4 µM
5 | COc1cccc(-c2nnc(-c3ccccc3[N+](=O)[O-])o2)c1 | – | inconclusive: 16.4 µM [activator, partial curve]
6 | CC(=O)NC(C)c1cc(F)c2cccnc2c1O (stereo not drawn) | inactive: -5.77% | –
7 | CC(C)c1ccc(O)c(NC(=S)NC(=O)c2ccc3c(c2)OCO3)c1 | – | inconclusive: 14.6 µM [activator, partial curve]
8 | O=C(NNC(=S)NC(=O)c1ccco1)c1ccc(F)cc1 | – | inconclusive: 2.06 µM [inhibitor, full curve]
9 | Cc1nc(SCc2nc3ccc(F)cc3[nH]2)c2oc3ccccc3c2n1 | – | inconclusive: 20.6 µM [inhibitor, single point]
10 | O=c1c2ccccc2cnn1-c1ccc(Cl)nn1 | – | inconclusive: 16.4 µM [activator, partial curve]
11 | COC(=O)c1ccc(CSc2nccn2C)cc1 | – | inconclusive: 29.1 µM [activator, single point]
12 | CCCC(=O)Nc1nnc(-c2ccc3c(c2)OCCO3)o1 | – | inconclusive: 20.6 µM [activator, partial curve]
13 | COc1cccc(N2CCN(C(=O)CCC(=O)c3ccc(Cl)s3)CC2)c1 | – | inconclusive: 20.6 µM [inhibitor, partial curve, poor fit]
14 | c1ccc(-c2nnc(SCc3cn4ccsc4n3)o2)cc1 | – | inconclusive: 20.6 µM [activator, partial curve, poor fit]
15 | COc1cc2nc(C3CCC3)nc(N3CCN(c4ccccc4OC)CC3)c2cc1OC | – | active: 11.6 µM
16 | COc1cc(OC)cc(C(=O)OCC(=O)Nc2ccc3[nH]c(=O)[nH]c3c2)c1 | inactive: -0.179% | –
17 | COc1ccccc1C(=O)n1nc(C)cc1C | – | inconclusive: 20 µM [inhibitor, partial curve, poor fit]
18 | Cc1ccsc1C(=O)OCC(=O)N1CC(=O)Nc2ccccc21 | – | inconclusive: 29.1 µM [inhibitor, single point]
19 | O=C(OCC(=O)N1CCN(C(=O)c2ccco2)CC1)c1cccc(O)c1 | – | inconclusive: 29.1 µM [activator, single point]
20 | COc1cccc(NC(=O)CN2CCN(CC(=O)Nc3ccc(F)cc3)CC2)c1 | – | inconclusive: 32.6 µM [inhibitor, single point]
21 | CN1CCN(C(=O)CCCOc2ccc(Cl)cc2Cl)CC1 | inactive: 17.4% | –
22 | CN1CCN(/N=C/c2cccc(Cl)c2Cl)CC1 | – | inconclusive: 18.4 µM [activator, partial curve]
23 | COc1cc(/C=N/Nc2nc(C)cc(C)n2)ccc1OC(=O)c1ccco1 | inactive: 13.6% | –
24 | Cc1ccc(OCc2cn3cccnc3n2)cc1 | – | inconclusive: 10.3 µM [activator, partial curve]
25 | Cc1ccc(/C=C/C(=O)Nc2cc(=O)n(C)c(=O)n2C)o1 | – | inconclusive: 13 µM [activator, partial curve]

Row | Structure (SMILES) | activity change, negative = inhibition | Potency
26 | CC(=O)N1CCc2cc(C(=O)CN3CCC(C)CC3)ccc21 | inactive: 11.4% | –
27 | Cc1cc(C)c(NC(=O)CSCc2c(C)noc2C)c(Cl)c1 | inactive: 17.1% | –
28 | CCCCN(CCCC)S(=O)(=O)c1ccc(NC(=O)c2ccc([N+](=O)[O-])cc2Cl)cc1 | – | inconclusive: 29.1 µM [inhibitor, single point]
29 | O=C(COc1ccc2ccc(=O)oc2c1)Nc1nccs1 | – | inconclusive: 16.4 µM [activator, partial curve]
30 | COc1cc(CC(=O)OCc2ccccc2F)cc(OC)c1OC | inactive: -1.19% | –
31 | COc1ccc(N2CC(=O)N(c3ccccc3)C2=S)cc1 | – | inconclusive: 18.4 µM [activator, partial curve, poor fit]
32 | CCSc1nnc(-c2cccc(S(=O)(=O)N(CC)CC)c2)n1Cc1ccccc1 | – | active: 23.1 µM
33 | OCCCCNCc1ccc(OCc2ccc(Cl)cc2Cl)cc1 | inactive: 12% | –
34 | CCC(C)Sc1ccc([C@@H]2[C@@H]3C(=O)N(CC)C(=O)[C@@H]3[C@]3(C(=O)OC)CCCCN23)cc1 (stereo partly drawn) | inactive: -25.4% | –
35 | O=C(CN1CCN(c2ccccc2)CC1)N1CCc2[nH]c3ccccc3c2C1 | inactive: -2.34% | –
36 | O=C(NNC(=O)c1ccc(Br)s1)NC1CCCCC1 | – | inconclusive: 6.51 µM [activator, partial curve, poor fit]
37 | COc1ccccc1C(=O)OCC(=O)Nc1cccc(S(=O)(=O)N2CCCC2)c1 | inactive: -27.8% | –
38 | O=C(NCc1ccc(N2CCCC2=O)cc1)Nc1ccccc1 | – | inconclusive: 5.8 µM [activator, partial curve, poor fit]
39 | O=[N+]([O-])c1cccc(-c2n[nH]c(=S)n2Cc2ccccc2)c1 | inactive: 21.5% | –
40 | Cc1ccc(SCCC(=O)Nc2ccccc2C(=O)NC2CCCCC2)cc1 | inactive: 1.78% | –
41 | NC(=O)c1ccc(NC(=O)c2ccc(COc3ccc(F)cc3)o2)cc1 | inactive: 6.41% | –
42 | COCCN(C(=O)COC(=O)c1cnc(C)cn1)c1c(N)n(Cc2ccccc2)c(=O)[nH]c1=O | inactive: 2.26% | –
43 | CCC(=O)n1nc(-c2ccco2)nc1SCc1ccccc1 | – | inconclusive: 18.4 µM [activator, partial curve]
44 | Clc1ccc(-c2noc(CSc3nnc(-c4ccncc4)n3-c3ccccc3)n2)cc1 | – | active: 16.4 µM
45 | O=S1(=O)CCC(NC(=S)SCCOc2ccccc2)C1 (stereo not drawn) | inactive: -7.02% | –
46 | COc1ccccc1C(CNC(=O)CNC(=O)c1ccc(Cl)c(Cl)c1)N1CCCC1 (stereo not drawn) | inactive: 9.8% | –
47 | Cc1c(Cl)cccc1NC(=O)c1cc(C2CC2)on1 | – | inconclusive: 14.6 µM [activator, partial curve]
48 | O=C(c1cccc(C(=O)N2CCN(Cc3ccccc3)CC2)c1)N1CCN(Cc2ccccc2)CC1 | – | inconclusive: 16.4 µM [inhibitor, single point]
49 | CCOP(=O)(OCC)C(Nc1ccccc1)c1cccnc1 (stereo not drawn) | – | inconclusive: 29.1 µM [activator, single point]
50 | C=CCn1cccc(C(=O)Nc2ccc(OC)cc2OC)c1=O | inactive: 4.71% | –

Look-ups from above:
C=CCn1cccc(C(=O)Nc2ccc(OC)cc2OC)c1=O | activity change, negative = inhibition: inactive: 4.71%
COc1cc(CC(=O)OCc2ccccc2F)cc(OC)c1OC | activity change, negative = inhibition: inactive: -1.19%

(next part)

Row | Structure (SMILES) | activity change, negative = inhibition | Potency
51 | Cc1cc(=O)oc2cc(OCC(=O)NCc3ccccn3)ccc12 | – | inconclusive: 0.562 µM [activator, full curve, poor fit]
52 | CCOC(=O)C1(Cc2ccccc2)CCN(Cc2cc(=O)c3ccccc3[nH]2)CC1 | – | inconclusive: 23.1 µM [inhibitor, single point]
53 | CC(C)N=C1NN=C(c2cccs2)CS1 | – | inconclusive: 14.6 µM [activator, partial curve]
54 | C=CCn1c(-c2ccc(Cl)cc2)cnc1SC(C)C(N)=O (stereo not drawn) | inactive: 7.85% | –
55 | CC(C)(C)c1ccc(S(=O)(=O)N(CCCN2CCOCC2)Cc2cccs2)cc1 | – | inconclusive: 29.1 µM [inhibitor, single point]
56 | Cc1cc(C)cc(C(=O)NCC(=O)OC(C)C(=O)N(C)c2ccccc2)c1 (stereo not drawn) | inactive: -18.8% | –
57 | Clc1ccc(CNc2ccccc2NCc2ccc(Cl)nc2)cn1 | – | inconclusive: 16.4 µM [inhibitor, single point]
58 | O=C(CSc1c(F)c(F)cc(F)c1F)Nc1ccc(C2SCCS2)cc1 | – | inconclusive: 10.3 µM [activator, partial curve, poor fit]
59 | CCCCC(=O)Nc1cccc(-c2nc3ncccc3o2)c1C | inactive: 17.1% | –
60 | Cn1c(N)c(C(=O)CSc2nc3ccccc3n2-c2ccccc2)c(=O)n(C)c1=O | – | inconclusive: 13 µM [activator, partial curve, poor fit]
61 | CCc1c(C)sc(NC(=O)c2cccs2)c1C#N | – | inconclusive: 13 µM [activator, partial curve]
62 | CN(NS(=O)(=O)c1ccc(Cl)cc1)c1nc(C(F)(F)F)nc2ccccc12 | – | active: 23.1 µM
63 | COc1cccc(NC(=O)CC(=O)c2ccccc2)c1 | – | inconclusive: 20.6 µM [activator, partial curve]
64 | CC1Cc2ccccc2N1C(=O)C1CCCN(S(=O)(=O)c2cccc3cccnc23)C1 (stereo not drawn) | – | active: 20.6 µM
65 | Cc1cc(NC(=O)C(C)Oc2ccc(Cl)cc2Cl)n(-c2ccccc2)n1 (stereo not drawn) | – | inconclusive: 29.1 µM [inhibitor, single point]
66 | COCCn1c(SCC(=O)NNC(=O)c2ccc(OC)c(OC)c2)nc2ccccc2c1=O | – | inconclusive: 20.6 µM [inhibitor, partial curve, poor fit]
67 | COC(=O)c1ccsc1NC(=O)CN1CCN(c2ncccn2)CC1 | – | inconclusive: 32.6 µM [inhibitor, single point]
68 | O=C(Nc1cccc(NC(=O)c2ccccc2Cl)c1)c1ccc(F)cc1 | inactive: -19.9% | –
69 | COc1cccc(-c2nn(C)c3sc(C(=O)NCc4ccccn4)cc23)c1 | – | inconclusive: 9.2 µM [inhibitor, single point]
70 | COc1ccccc1NC(=O)COc1ccc(C(=O)OCC(=O)NC(C)(C)C)cc1OC | – | inconclusive: 29.1 µM [inhibitor, single point]
71 | Cc1nn(S(=O)(=O)c2ccccc2)c(C)c1S(=O)(=O)N1CCC(C)CC1 | inactive: 17.7% | –
72 | Cc1cc(C(=O)NCCC2=CCCCC2)ccc1[N+](=O)[O-] | – | inconclusive: 9.2 µM [activator, partial curve]
73 | CN(C)c1ccc(N=Cc2nc(-c3ccccc3)oc2OC(=O)c2ccccc2)cc1 | – | inconclusive: 5.8 µM [activator, partial curve]

Entries shown so far that have an aryl thioether with sulfur outside any ring:
Row | Structure (SMILES) | activity change, negative = inhibition | Potency
2 | O=C(CSc1nc(-c2ccco2)cc(C(F)(F)F)n1)Nc1cccnc1 | – | inconclusive: 13 µM [inhibitor, partial curve, poor fit]
9 | Cc1nc(SCc2nc3ccc(F)cc3[nH]2)c2oc3ccccc3c2n1 | – | inconclusive: 20.6 µM [inhibitor, single point]
11 | COC(=O)c1ccc(CSc2nccn2C)cc1 | – | inconclusive: 29.1 µM [activator, single point]
14 | c1ccc(-c2nnc(SCc3cn4ccsc4n3)o2)cc1 | – | inconclusive: 20.6 µM [activator, partial curve, poor fit]
32 | CCSc1nnc(-c2cccc(S(=O)(=O)N(CC)CC)c2)n1Cc1ccccc1 | – | active: 23.1 µM
34 | CCC(C)Sc1ccc([C@@H]2[C@@H]3C(=O)N(CC)C(=O)[C@@H]3[C@]3(C(=O)OC)CCCCN23)cc1 (stereo partly drawn) | inactive: -25.4% | –
40 | Cc1ccc(SCCC(=O)Nc2ccccc2C(=O)NC2CCCCC2)cc1 | inactive: 1.78% | –
43 | CCC(=O)n1nc(-c2ccco2)nc1SCc1ccccc1 | – | inconclusive: 18.4 µM [activator, partial curve]
44 | Clc1ccc(-c2noc(CSc3nnc(-c4ccncc4)n3-c3ccccc3)n2)cc1 | – | active: 16.4 µM
54 | C=CCn1c(-c2ccc(Cl)cc2)cnc1SC(C)C(N)=O (stereo not drawn) | inactive: 7.85% | –
58 | O=C(CSc1c(F)c(F)cc(F)c1F)Nc1ccc(C2SCCS2)cc1 | – | inconclusive: 10.3 µM [activator, partial curve, poor fit]
60 | Cn1c(N)c(C(=O)CSc2nc3ccccc3n2-c2ccccc2)c(=O)n(C)c1=O | – | inconclusive: 13 µM [activator, partial curve, poor fit]
66 | COCCn1c(SCC(=O)NNC(=O)c2ccc(OC)c(OC)c2)nc2ccccc2c1=O | – | inconclusive: 20.6 µM [inhibitor, partial curve, poor fit]

Source: PubChem BioAssay AID504467 (National Center for Advancing Translational Sciences (NCATS), 2011)
